The supplement of paper PMC12889115
The list shows a part of the results. Values are raw readings; no control value is given beside them.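 Primary screen: polymyxin B was added at a level permeabilizing Salmonella outer membranes while sparing inner membranes. DMSO wells, both with and without polymyxin B, established maximum growth. Plate-to-plate variation meant each plate was ranked on its own, and the lowest-OD600 compounds were selected as hits.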

Tested on: Salmonella enterica serovar Typhimurium SL1344
Assay: bacterial growth OD600 after 18 h with compound and polymyxin B; higher = more bacterial growth (less inhibition)
Conditions: 50 µM, Mueller-Hinton broth

`COc1ccc(-c2noc(CN(C)Cc3nc4ccc(F)cc4[nH]3)n2)cc1` was tested, and the “bacterial growth OD600” value (polymyxin B 1 µg/mL) was 0.857.

For `CCc1csc(CNC(=O)c2ccc(N3CC[C@H](O)C3)nc2)n1`, the “bacterial growth OD600” value (polymyxin B 0.75 µg/mL) was 0.806.

In the case of `CC(NC(=O)CCC1(Cc2ccc(-c3ccccc3)cc2)CCC(=O)N1)c1cccs1` (stereo unspecified), the “bacterial growth OD600” value (polymyxin B 0.75 µg/mL) is reported as 0.01.

With `Cc1ccccc1CC(=O)NC1CC(C)(C)Cc2nc(N3CCOCC3)ncc21` (stereo unspecified) the “bacterial growth OD600” value (polymyxin B 0.75 µg/mL) was 0.795.

For `CC(C(=O)NCCN1Cc2ccccc2OC(c2ccccc2F)C1)c1n[nH]c(=O)c2ccccc12` (stereo unspecified), the “bacterial growth OD600” value (polymyxin B 0.75 µg/mL) was 0.599.

With `CO[C@H]1[C@H](NC(=O)c2ccsc2)c2ccccc2C12CCN(Cc1ccc3ncccc3c1)CC2` the “bacterial growth OD600” value (polymyxin B 0.75 µg/mL) was 0.857.

With `COc1ccccc1OCc1cc(C(=O)NCc2cccc(C)n2)n[nH]1` the “bacterial growth OD600” value (polymyxin B 0.75 µg/mL) was 0.839.

In the case of `COC(C(=O)Nc1ccnn1C1CCN(C(=O)c2ccco2)CC1)c1ccccc1` (stereo unspecified), the “bacterial growth OD600” value (polymyxin B 1 µg/mL) is reported as 0.942.

With `COc1ccc(CN2C(=O)O[C@@H]3CN(C(=O)Nc4ccccc4)C[C@@H]32)cc1OC` the “bacterial growth OD600” value (polymyxin B 0.75 µg/mL) was 0.921.

In the case of `Cc1cccc(N2CCN(CC3(O)CCCN(CC4CCC4)C3=O)CC2)n1` (stereo unspecified), the “bacterial growth OD600” value (polymyxin B 1 µg/mL) is reported as 0.869.

For `COc1cc(OC)c(OC)cc1CN(C)CC1CCCN(CCc2ccccc2F)C1` (stereo unspecified), the “bacterial growth OD600” value (polymyxin B 0.75 µg/mL) was 0.785.

`Cc1csc(CN(C)Cc2c(C(=O)N3C[C@@H](C)O[C@@H](C)C3)nc3sccn23)n1` was tested, and the “bacterial growth OD600” value (polymyxin B 1 µg/mL) was 0.856.

In the case of `COc1cccc(CN2CCN(C(=O)CCC3(Cc4ccc(F)c(OC)c4)CCC(=O)N3)CC2=O)c1` (stereo unspecified), the “bacterial growth OD600” value (polymyxin B 0.75 µg/mL) is reported as 0.842.

With `COc1ccc(CNC(=O)CCC2CCCN(Cc3ccc(Cl)s3)C2)c(OC)c1` (stereo unspecified) the “bacterial growth OD600” value (polymyxin B 1 µg/mL) was 0.927.

With `O=C(c1ccc(N[C@H]2CC[C@H](O)CC2)nc1)N1CCCC(c2ccccc2)CC1` (stereo partly specified) the “bacterial growth OD600” value (polymyxin B 0.75 µg/mL) was 0.758.

With `CC(=O)c1ccc(OCc2cc(C(=O)NC3CCCCCC3)no2)cc1` the “bacterial growth OD600” value (polymyxin B 0.75 µg/mL) was 0.521.

With `CC(=O)Nc1cc(C(=O)N2CCCC(c3ccccc3)C2)c2c(c1)nc(C)n2Cc1ccccc1` (stereo unspecified) the “bacterial growth OD600” value (polymyxin B 0.75 µg/mL) was 0.764.

With `COc1ccc(NC2CCCN(C(=O)c3cnn(Cc4ccccc4)c3)C2)cc1` (stereo unspecified) the “bacterial growth OD600” value (polymyxin B 1 µg/mL) was 0.842.

`CC(=O)N[C@@H](CC(C)C)C(=O)N1CCc2c(cnc(C)c2CNC(=O)/C=C/c2cccs2)C1` was tested, and the “bacterial growth OD600” value (polymyxin B 0.75 µg/mL) was 0.825.

For `CC(=O)N1CCN(c2ccc(-c3nc(-c4cccc(Cl)c4)no3)cn2)CC1`, the “bacterial growth OD600” value (polymyxin B 0.75 µg/mL) was 0.253.

For `COc1ccc(-c2ncc(CN3CCCC(CO)(Cc4ccccc4F)C3)cn2)cc1` (stereo unspecified), the “bacterial growth OD600” value (polymyxin B 1 µg/mL) was 0.977.

In the case of `Cc1cccc(CN2CCCC(O)(CN3CCCOCC3)C2=O)c1` (stereo unspecified), the “bacterial growth OD600” value (polymyxin B 1 µg/mL) is reported as 0.918.

In the case of `CN(CC(O)c1ccccc1)c1nncc(-c2cccc(F)c2)n1` (stereo unspecified), the “bacterial growth OD600” value (polymyxin B 0.75 µg/mL) is reported as 0.616.

`CN(CCc1ccccn1)C(=O)c1coc(COc2cccc3cccnc23)n1` was tested, and the “bacterial growth OD600” value (polymyxin B 0.75 µg/mL) was 0.775.

For `COc1ccc(CCN2CCCC(CN(C)C(=O)Nc3ccccc3)C2)cc1` (stereo unspecified), the “bacterial growth OD600” value (polymyxin B 1 µg/mL) was 1.1.

For `CCc1nc(C)c(CN2C[C@H]3OC(=O)N(CCCc4ccc(F)cc4)[C@H]3C2)[nH]1`, the “bacterial growth OD600” value (polymyxin B 0.75 µg/mL) was 0.865.

`CCn1ccnc1CN1CCC(Oc2cc(Cl)ccc2C(=O)N2CCCCC2)CC1` was tested, and the “bacterial growth OD600” value (polymyxin B 1 µg/mL) was 1.04.

For `CN(C)C(=O)N1CCC(C(=O)NC2CCCN(CCc3ccccc3)C2)CC1` (stereo unspecified), the “bacterial growth OD600” value (polymyxin B 0.75 µg/mL) was 0.823.

`CCN1CCC(N2CCC(C(=O)NCc3cccnc3)CC2)CC1` was tested, and the “bacterial growth OD600” value (polymyxin B 1 µg/mL) was 1.03.

With `Fc1cccc(-c2cnnc(NC3CCCCCC3)n2)c1` the “bacterial growth OD600” value (polymyxin B 0.75 µg/mL) was 0.27.

With `Cc1nc(C)c(CC(=O)N2CCCC(CCC(=O)N(C)CCc3ccccn3)C2)s1` (stereo unspecified) the “bacterial growth OD600” value (polymyxin B 1 µg/mL) was 1.03.
